Most entries show no effect beyond the scatter of the controls.
Experiments:
Test in all cases: normalised response (% of control), CellTox Green; higher = less cell death (100 = DMSO, 0 = benzethonium chloride kill control)
Settings in all cases: incubation time: 72 h
DU-4475 = test system: DU-4475
Procedure: (§1)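 DSRT, 72 h incubation, CellTox Green / CellTiter-Glo readout. Signal is normalised to DMSO and benzethonium chloride controls. Value is the normalised response at dose 2.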

Hs578T = test system: Hs578T
Procedure: as §1

MDA-MB-453 = test system: MDA-MB-453
Procedure: as §1

MFM-223 = test system: MFM-223
Procedure: as §1

CAL-85-1 = test system: CAL-85-1
Procedure: as §1

MDA-MB-468 = test system: MDA-MB-468
Procedure: as §1

BT-549 = test system: BT-549
Procedure: as §1

HCC1599 = test system: HCC1599
Procedure: as §1

HDQ-P1 = test system: HDQ-P1
Procedure: as §1

MCF-10A = test system: MCF-10A
Procedure: as §1

CAL-120 = test system: CAL-120
Procedure: as §1

MDA-MB-436 = test system: MDA-MB-436
Procedure: as §1

CAL-51 = test system: CAL-51
Procedure: as §1

HCC1937 = test system: HCC1937
Procedure: as §1

CAL-148 = test system: CAL-148
Procedure: as §1

HCC1143 = test system: HCC1143
Procedure: as §1

MDA-MB-231 = test system: MDA-MB-231
Procedure: as §1

BT-474 = test system: BT-474
Procedure: as §1

Compound | normalised response (DU-4475) | normalised response (Hs578T) | normalised response (MDA-MB-453) | normalised response (MFM-223) | normalised response (CAL-85-1) | normalised response (MDA-MB-468) | normalised response (BT-549) | normalised response (HCC1599) | normalised response (HDQ-P1) | normalised response (MCF-10A) | normalised response (CAL-120) | normalised response (MDA-MB-436) | normalised response (CAL-51) | normalised response (HCC1937) | normalised response (CAL-148) | normalised response (HCC1143) | normalised response (MDA-MB-231) | normalised response (BT-474)
O=C(O)CNC(=O)c1c(O)c2ccccc2n(Cc2ccccc2)c1=O [IOX-2] (50 nM) | 95.2% | 121% | 93.2% | 105% | 96.2% | 101% | 104% | 99.4% | 119% | 62.4% | 98.6% | 108% | 99.5% | 109% | 86.3% | 87.3% | 110% | 104%
COCC1(CO)C(=O)C2CCN1CC2 (configuration not stated) [Prima-1 Met] (10 nM) | 112% | 127% | 107% | 103% | 86.6% | 73.4% | 96.1% | 120% | 120% | 94% | 105% | 105% | 110% | 104% | 78% | 116% | 95.4% | 102%
CCCCCOC(=O)Nc1nc(=O)n([C@@H]2O[C@H](C)[C@@H](O)[C@H]2O)cc1F [Capecitabine] (10 nM) | 99% | 101% | 100% | 97.4% | 104% | 71% | 94.2% | 101% | 85.3% | 78.4% | 103% | 79% | 101% | 87.1% | 96.3% | 89.3% | 104% | 100%
COC1=C2C[C@@H](C)C[C@H](OC)[C@H](O)[C@@H](C)/C=C(\C)[C@H](OC(N)=O)[C@@H](OC)/C=C\C=C(/C)C(=O)NC(=CC1=O)C2=O [Geldanamycin] (10 nM) | 111% | 111% | 101% | 100% | 97.6% | 63.8% | 87.4% | 114% | 112% | 112% | 99.2% | 77% | 102% | 101% | 94.6% | 104% | 92.3% | 72.1%
COc1cc(O)c2c(c1)/C=C/C[C@H](O)[C@H](O)C(=O)/C=C\C[C@H](C)OC2=O [(5Z)-7-Oxozeaenol] (10 nM) | 107% | 104% | 77.6% | 100% | 101% | 128% | 94.7% | 114% | 114% | 93.8% | 97.4% | 104% | 110% | 116% | 105% | 107% | 95.1% | 105%
